Data: paper PMC6286383
Results are given in words; binding and its absence hold for the method and conditions named. Binding seen in cells or lysates may run through a third protein. These calls come from enrichment with a bait or labelling near it, and not all partners need be listed. No binding means not detected with the bait. Blank lines part the entries; values can stand above or below the binder they belong to.

Biological target: γH2AX (histone H2AX phosphorylated at serine-139) (mouse (endogenous in testis)) (UniProt P27661)
Assay: affinity purification with mass spectrometry; IP-MS on P15 wild-type mouse testis with γH2AX and SETDB1 as bait; LFQ enrichment against control IgG-IP (Welch's t-test, FDR 0.01)

binding: no binding
B1: ATF7IP (protein, UniProt Q7TT18 1-1306)
chain: MDSVEEPQKKVFKARKTMRASDRQQLDAVHRVKGELLRADGKLLNGSHENGDLDPTSPLENTDCIQDREEVNGIDGICFQSEESTTEWKETPCMPNVAVKNKQEDLNSEALSPSITCDLSSRVTTEPGSGSPASDNPGCGTPVSDNPASDNPASDNPASDNPDSGDLAAGELATTVQATGDSACEEPPSSDPSSSDPTSSEPSSSEPTCSEPISGDPVSEEAASHDLVSGDSTCSEPVSGEPVSHEAASSEPATSEPASDEPVARVVAACELAPGESALDDCAPSGDSQSDEPPSSEDSLPRSVCSGLASGELTPGELSVEPATDTVKPSSSAVCEAGPDPDKTEPSSNNSDDCPGKSEDDEHLDQIQSKDSCDEGNKVNSNVVEKEEPLETHSAIICSDLPPENTTKIAEDPIAEPALEEEAISSSMEVDQSEKDEHKSPAEPVAAVSEDPAEEDKEDTVVDNTDSMETDEIIPILEKLAPTEDELSCFSKASLLPVETSQDLEDKMEGSFGSPSKQESSENLPKEAFLVLSDEEDLSCGKDESEAVAQSKMSTPEGEKSEKDGKAEEEERVPAEEQPPVRNEFSRRKRSKSEDMDSVESKRRRYMDEEYEAEFQVKITAKGDINQKLQKVIQWLLQEKLCALQCAVFDKTLAELKTRVEKIECNKRHKAVLTELQAKIARLTKRFGAAKDDLKKRQESPPNPPISPGKPANDTNSNNNMTYRNAGTVRQLLESKRNVSEGPPPSFQTPVNTVSSASHATSTAVVSSQPKLQTSATSGSLPAAPLLPAPSTATVVATTQVPSGTPQPTISLQPLPVILHVPVAVTSQPQLLQSHPGTLVTNQPSGNVEFISVQSQPTVSGLTKNPVSLPPLPNPTKPNIPSVPSPSSIQRNSSTTAAPLGTTLAVQAVPTAHSIVQATRTSLPTVGPSGLYSSSSSRGPIQMKIPISTFSPPSSAEQNSSATPRIVTENQTNKTVDSSINKKAADSTSQSGKASSSDSSGVIDLTMDDEESGTTQDPKKISPPSSSTVSTSQPMSRPLQPILPAPPLQPSGVPTSGPSQATIHVLPTAPTTVNVTHRPVTQVTTRLPVPRAPANHQVVYTTLPAPTTQAPLRGTVMQAPAVRQVNPQNSVTVRVPQTTTYVVNNGLTLGSAGPQLTVHHRPPQVHNEPPRPLHPAPLPEAPQPQRLPPEAASTSLPQKPHLKLARVQSQNGIVLSWSVLEVDRSCATVDSYHLYAYHEEPSATVPSQWKKIGEVKALPLPMACTLTQFVSGSKYYFAVRAKDIYGRFGPFCDPQSTDVISSSQNS

binding: no binding
B2: ATF7IP2 (protein, UniProt Q3UL97 1-452)
chain: MESPDRKRQKVLKAKKTMPTSYQKQLEILNKSTNVEAPKTTVGTNIPNGHNQKMFSKNKENVKVMKVSEQINENACGALERHTALLEQVKHWIRQEICMINCNLFDKKLNELNERIGKTQCKSRHEAIAGELFVKIRRLQKRIKTVLSSQRNCLEPNTLPSNTVCKVTDSEAMNLNVTQKSVKSRSKRISSVNHTPLNSSEKAGRKTNLPSTCVEFASESNTDDVMLISVKNSNLTTSITSEQTEIRKNTSRNLSNSPNSMIKVGPVEKKFDFVIDLTREGPSNYSIESPSFTLKSTSKAVLRSKEIIPVAENGNEGFGSFEHLPPLPEPPAPLPEMADKIKDTLPPQKPELKVKWVLRPTSIALTWNIPKVNPNCAPVESYHLFLYYENSDHLTWKKIAEIKALPLPMACTLSQNLASTKYYFAVQSKDIFGRYGPFCNIKSIPRFSENLT
